These results are taken from PMC11568366.

The chains behind the UniProt entries cited, without tags or fusion partners. Where a name states a change or a piece, a line headed by the entry shows the natural chain unless it says otherwise. A line that says so, or that is headed by a name, gives the form on record, which may keep a tag or linker. Residues count along the entry.
endogenous SET/TAF-Iβ of MEF cells (mouse (endogenous in MEF)) (Q9EQU5, form named): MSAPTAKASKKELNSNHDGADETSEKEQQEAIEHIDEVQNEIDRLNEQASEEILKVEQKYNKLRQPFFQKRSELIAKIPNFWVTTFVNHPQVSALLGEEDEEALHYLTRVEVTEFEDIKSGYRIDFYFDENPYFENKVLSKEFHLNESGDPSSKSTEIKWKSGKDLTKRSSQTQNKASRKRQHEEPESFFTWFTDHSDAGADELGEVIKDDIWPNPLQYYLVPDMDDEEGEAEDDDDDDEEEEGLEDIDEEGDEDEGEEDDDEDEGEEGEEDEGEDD
SET/template-activating factor Iβ (SET/TAF-Iβ), recombinant (Q01105, form named): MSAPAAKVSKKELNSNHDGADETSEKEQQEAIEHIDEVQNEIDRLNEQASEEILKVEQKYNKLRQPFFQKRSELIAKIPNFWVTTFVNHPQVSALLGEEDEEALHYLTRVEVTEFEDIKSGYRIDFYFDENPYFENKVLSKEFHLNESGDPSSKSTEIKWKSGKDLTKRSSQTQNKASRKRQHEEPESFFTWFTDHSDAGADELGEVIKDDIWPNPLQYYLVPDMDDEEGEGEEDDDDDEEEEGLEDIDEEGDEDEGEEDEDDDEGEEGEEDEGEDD
UniProt P02769, residues 25-607: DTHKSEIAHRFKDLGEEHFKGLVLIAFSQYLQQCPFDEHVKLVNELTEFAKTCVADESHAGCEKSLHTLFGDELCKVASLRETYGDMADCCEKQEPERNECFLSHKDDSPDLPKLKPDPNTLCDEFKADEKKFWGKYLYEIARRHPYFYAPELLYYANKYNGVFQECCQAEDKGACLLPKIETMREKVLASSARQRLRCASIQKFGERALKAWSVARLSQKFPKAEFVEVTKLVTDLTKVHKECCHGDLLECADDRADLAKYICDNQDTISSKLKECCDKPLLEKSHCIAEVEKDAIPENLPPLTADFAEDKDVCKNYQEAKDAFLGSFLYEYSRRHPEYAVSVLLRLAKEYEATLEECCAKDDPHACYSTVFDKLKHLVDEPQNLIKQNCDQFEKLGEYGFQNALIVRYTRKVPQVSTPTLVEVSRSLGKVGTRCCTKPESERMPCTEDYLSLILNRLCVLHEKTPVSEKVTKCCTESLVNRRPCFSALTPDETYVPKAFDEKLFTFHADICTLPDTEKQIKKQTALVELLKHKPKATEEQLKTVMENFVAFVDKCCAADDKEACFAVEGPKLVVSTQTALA
wild-type cytochrome c (reduced) (P99999, residues 2-105): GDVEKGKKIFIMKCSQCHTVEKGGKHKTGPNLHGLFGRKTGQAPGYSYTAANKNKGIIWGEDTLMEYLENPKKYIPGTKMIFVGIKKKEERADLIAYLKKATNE
Myc-tagged Y48D human cytochrome c expressed in Cc-/- MEF cells (P99999, form named): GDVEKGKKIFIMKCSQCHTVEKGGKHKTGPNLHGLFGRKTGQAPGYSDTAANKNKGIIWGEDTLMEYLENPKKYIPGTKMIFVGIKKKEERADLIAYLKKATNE

No constants are given. Whether binding was seen depends on the method and setting. For some assays here: In cells and extracts the contact can be indirect. Some entries that bind do so weakly or less than the wild type.

For test [1], the target named is endogenous SET/TAF-Iβ of MEF cells (mouse (endogenous in MEF)) (UniProt Q9EQU5). The test is described as follows: proximity ligation; in situ PLA in fixed Cc-/- MEF transfected with Myc-tagged Cc, mouse anti-Myc and rabbit anti-SET antibodies; basal DNA damage.
Test [2] addresses SET/template-activating factor Iβ (SET/TAF-Iβ), recombinant (UniProt Q01105). The test is described as follows: NMR titration; competition: 13 μM reduced WT Cc with 3.5 μM SET/TAF-Iβ, 5-40 μg calf thymus histone mix added, recovery of the Met80-εCH3 signal; 10 mM sodium phosphate pH 7.4, 298 K; both purified.
The target of test [3] is BSA (bovine (from the name BSA)) (UniProt P02769). The test is described as follows: NMR titration; 1D 1H NMR of the Met80-εCH3 signal of 13 μM reduced Cc with 1.75 and 3.5 μM SET/TAF-Iβ, or 3.5 μM BSA as control; 10 mM sodium phosphate pH 7.4, 5 equivalents of sodium ascorbate, 298 K; both purified.
Test [4] has as its target SET/template-activating factor Iβ (SET/TAF-Iβ), recombinant (UniProt Q01105). Described as above.

In the case of “Myc-tagged Y48D human cytochrome c expressed in Cc-/- MEF cells (from UniProt P99999 2-105)”, in test [1], the binding result was “binds”.

“Myc-tagged wild-type human cytochrome c expressed in Cc-/- MEF cells (from UniProt P99999 2-105)”: in test [1], the binding result is given as “binds”.

“wild-type cytochrome c (reduced) (from UniProt P99999 2-105)”: the binding entry in test [2] was “binds”; in test [3], “no binding (tested: 3.5 μM BSA)”; in test [4], “binds”.
